# Test results published in PubChem BioAssay AID1347075 (National Center for Advancing Translational Sciences (NCATS), 2019).
# Out of some 400,000 compounds screened, about 5,500 (1.4%) were called active. The inconclusive results got no clear call from the source; some entries with a clear call stand among them for comparison. Calls follow the shape of the dose curve; as a rule, active = well fitted cell-killing curve with a large enough effect; inconclusive = small, poorly fitted or top-dose-only effect, or effect the other way; inactive = flat fitted curve, though single readings scatter. Potencies of inconclusive entries are doubtful fits and often do not repeat.
# Test: qHTS assay for MDR1-selective chemotherapeutics: Primary screen using the parental adenocarcinoma cell KB-3-1; also: nearly all actives have a fitted effect of over 60% in size
# Settings: KB-3-1 viability, CellTiter-Glo ATP luminescence, 72 h; activity change, negative = cytotoxic: at 46.1 µM (top of the series)
# Procedure, shortened: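 Here the drug-naive KB-3-1 line serves as comparator for MDR sub-line selectivity; cells received compound titrations, 72 h at 37 °C, then CellTiter-Glo readout.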
# % is scaled to controls: 0 for no effect and ±100 for the full control effect; potency is read from the fitted curve at half-maximal effect.
SMILES,Potency,"activity change, negative = cytotoxic"
CCOc1ccc(-c2cc(CCCC(=O)Nc3cccc(OC)c3)no2)cc1,"inconclusive: 1.3 µM [cytotoxic, full curve, poor fit]",
CC1CCCCN1CCNC(=O)c1ccc2c(=O)n(CCc3ccccc3)c(=O)[nH]c2c1 (configuration not stated),active: 20.6 µM,
O=C1CCCC2=C1C1(CCCC1)N=C(Nc1nc3ccccc3o1)N2,"inconclusive: 32.6 µM [rising, single point]",
O=C(c1ccc(Cl)c(S(=O)(=O)Nc2ccc(F)cc2)c1)N1CCN(c2ccccn2)CC1,"inconclusive: 5.8 µM [cytotoxic, full curve]",
CCOc1ccc(CCNC(=O)CSc2cc(=O)n(C)c3ccccc23)cc1OCC,"inconclusive: 2.06 µM [rising, full curve]",
COc1cc(C(=O)NCCOc2cc(C)ccc2C(C)C)cc(OC)c1OC,"inconclusive: 23.1 µM [cytotoxic, single point]",
COc1ccc(C(C)=O)cc1COC(=O)C(CO)NS(=O)(=O)c1ccc(Br)cc1 (configuration not stated),,inactive: 16.8%
CCc1cc(C(=O)N2CCCC(CO)(Cc3ccc(F)cc3)C2)n(C)n1 (configuration not stated),"inconclusive: 2.06 µM [cytotoxic, full curve, poor fit]",
Cc1ccccc1-n1nc(C)c2cc(C(=O)NCc3cccnc3)sc21,"inconclusive: 10.3 µM [cytotoxic, partial curve, poor fit]",
CC(C)c1ccc(OCC(=O)NC2CC(C)(C)NC(C)(C)C2)c(Br)c1,"inconclusive: 14.6 µM [cytotoxic, single point]",
COc1ccc(C2CC(c3ccc4ccccc4c3OC(C)=O)=NN2C(C)=O)cc1 (configuration not stated),"inconclusive: 16.4 µM [cytotoxic, single point]",
O=C(O)C1(c2ccccc2)CCN(S(=O)(=O)c2cccc(Cl)c2)CC1,"inconclusive: 32.6 µM [rising, single point]",
C[C@@]12C(=O)Nc3ccc(F)cc3C(=O)N1[C@H]1c3cc(Cl)ccc3OC[C@@H]1[C@@H]2c1ccccc1,"inconclusive: 25.9 µM [cytotoxic, single point]",
N#CC(C#N)=Cc1ccc(OCC(=O)N2CCOCC2)cc1,,inactive: 0.494%
CCOC(=O)C1CCCN(Cc2cc(Br)c(OC)cc2OC)C1 (configuration not stated),,inactive: 9.63%
COc1ccc(-c2cc(C(=O)N3CCN(c4ccccc4OC)CC3)c3cc(C(C)C)ccc3n2)cc1,"inconclusive: 29.1 µM [cytotoxic, single point]",
CCOC(=O)COn1c(-n2nc(C)cc2C)nc2ccccc2c1=O,"inconclusive: 25.9 µM [cytotoxic, single point]",
CCc1ccc(C(=O)Nc2ccc3c(c2)n(C)c(=O)n3C)cc1,,inconclusive: -30.3% [cytotoxic]
CCc1ccc(OCC(=O)NC(NC(=S)Nc2ccccc2OC)C(Cl)(Cl)Cl)cc1 (configuration not stated),"inconclusive: 25.9 µM [cytotoxic, single point]",
NC(=O)C1CCCN1Cc1ccc2c(c1)OCO2 (configuration not stated),,inconclusive: 1.51%
O=C(NCc1cccc(C(F)(F)F)c1)c1c[nH]c(=O)s1,"inconclusive: 25.9 µM [cytotoxic, partial curve, poor fit]",

SMILES,Potency,"activity change, negative = cytotoxic"
CN(C)c1ccc(C(=C2C=CC(=[N+](C)C)C=C2)c2c(O)c(S(=O)(=O)[O-])cc3cc(S(=O)(=O)O)ccc23)cc1,"inconclusive: 7.31 µM [cytotoxic, partial curve]",
c1csc(-c2nc3c4ccccc4c4ccccc4c3[nH]2)c1,"inconclusive: 29.1 µM [cytotoxic, single point]",
CC(=O)N1CCN(C(=O)c2oc3ccccc3c2C)CC1,,inactive: 10.7%
Cc1cc(Oc2ccccc2F)nc(NCc2ccccc2)n1,"inconclusive: 29.1 µM [cytotoxic, single point]",
COc1ccccc1C(=O)OCCc1ccccc1,"inconclusive: 29.1 µM [rising, single point]",
Cc1ccc(NC(=O)c2ccc3nc(Cc4ccccc4)oc3c2)cc1F,"inconclusive: 14.6 µM [cytotoxic, single point]",
Cc1cccc(-c2noc(CN(C(=O)c3ccc(C)c(C)c3)C(C)C)n2)c1,"inconclusive: 20.6 µM [cytotoxic, single point]",
CC(NC(=O)C12CC3CC(CC(C3)C1)C2)C(=O)NN=Cc1ccc([N+](=O)[O-])o1 (configuration not stated),"inconclusive: 23.1 µM [cytotoxic, single point]",
Cc1ccc2cc(CN(Cc3ccco3)Cc3nnnn3Cc3ccco3)c(=O)[nH]c2c1,,inactive: -12.2%
COc1ccccc1C(=O)NCCC(=O)N1CCN(c2ccccc2O)CC1,"inconclusive: 0.82 µM [rising, full curve, poor fit]",
CN(c1ccccc1)S(=O)(=O)c1ccc(NC(=O)c2ccccc2)cc1,"inconclusive: 20.6 µM [cytotoxic, single point]",
Cc1cccc(COC[C@H](Cc2ccccc2)N2CCN(C(=O)c3ccc(Cl)c(Cl)c3)CCC2=O)c1,"inconclusive: 18.4 µM [cytotoxic, single point]",
Cc1ccc(-n2c(SCC(=O)N3CC(=O)Nc4ccccc43)nc3ccccc3c2=O)cc1,"inconclusive: 29.1 µM [cytotoxic, single point]",
CC(=O)C1CCC2C3CC(C)C4=CC(=O)CCC4(C)C3C(=O)CC12C (configuration not stated),"inconclusive: 2.91 µM [cytotoxic, partial curve, poor fit]",
O=C1NC(=S)N/C1=C/c1cccn1-c1ccc([N+](=O)[O-])cc1,,inactive: -45.6%
CN(C[C@@H](CC1CCCCC1)N(C[C@H](Cc1ccccc1)N(CCc1ccccc1)N=O)N=O)N=O,,inactive: 10.9%
CCCOc1ccc(OC(=O)c2sc3ncn(Cc4cccc(F)c4)c(=O)c3c2C)cc1,,inactive: 1.61%
O=C(NC1c2ccccc2-c2ccccc21)c1ccccc1,,inactive: -0.502%
O=[N+]([O-])c1cccc(S(=O)(=O)NCc2ccncc2)c1,,inactive: -25.6%
O=C1CC(N2CCN(S(=O)(=O)c3ccc([N+](=O)[O-])cc3)CC2)C(=O)N1c1ccccc1F (configuration not stated),,inactive: -6.31%
Cc1cccc(NC(=S)N/N=C/C(C)c2ccccc2)c1C (configuration not stated),"inconclusive: 10.3 µM [rising, partial curve, poor fit]",

# Another view of some results above:
SMILES	Potency	activity change, negative = cytotoxic
CC(NC(=O)C12CC3CC(CC(C3)C1)C2)C(=O)NN=Cc1ccc([N+](=O)[O-])o1 (configuration not stated)	inconclusive: 23.1 µM [cytotoxic, single point]	
Cc1ccc2cc(CN(Cc3ccco3)Cc3nnnn3Cc3ccco3)c(=O)[nH]c2c1		inactive: -12.2%
